This is an account of results in patent publication US8011774B2, “Azo dye, colored composition, heat-sensitive transfer recording ink sheet, heat-sensitive transfer recording method, color toner, inkjet ink and color filter” (Fujifilm Corporation, priority 2006, dated 2011).

Some entries repeat one wording, which the source may state once for all of them.

This data set is described as follows: Heat-sensitive transfer recording: Status A reflection density of solid density portion (transferring property). As to conditions: Status A reflection density at solid density (100% dot density); thermal head 0.25 W/dot.
Regarding `Cc1nn2nc(C(C)(C)C)c(N=Nc3c(C#N)c(C(C)(C)C)nn3C)c2n1C` [Dye (1)], the Transferring property entry is recorded as “A (A (very good): reflection density of 1.8 or more)”.

For the compound `CCn1nc(C(C)(C)C)c(C#N)c1/N=N/c1c(C(C)(C)C)nn2c(C)nn(CC)c12` [Dye (8)], the Transferring property entry is given as “A (A (very good): reflection density of 1.8 or more)”.

Take `CCSc1nnc(N=Nc2c(C(C)(C)C)nn3c(C(C)C)n[nH]c23)s1` [Dye for Comparison 1, reference compound]: the Transferring property entry is given as “C (C (probably acceptable): reflection density of 1.0 or more but less than 1.6)”.

`CCSc1nnc(/N=N/c2c(C(C)(C)C)nn3c(C(C)C)nn(CC)c23)s1` [Dye (23)]: the Transferring property result was “A (A (very good): reflection density of 1.8 or more)”.

For the compound `CCN(CCOc1ccc(C2CCCCC2)cc1)c1ccc(C=C(C#N)C#N)cc1` [Dye for Comparison 3, reference compound], the Transferring property entry is “A (A (very good): reflection density of 1.8 or more)”.

In the case of `CCc1nn(C)c2c(/N=N/c3c(C#N)c(C(C)(C)C)nn3C)c(C(C)(C)C)nn12` [Dye (9)], the Transferring property entry is “A (A (very good): reflection density of 1.8 or more)”.

On to `CCSc1nnc(/N=N/c2c(C(C)(C)C)nn3nc(C(C)C)n(C)c23)s1` [Dye (28)], for which the Transferring property result is “A (A (very good): reflection density of 1.8 or more)”.

Regarding `Cc1nn(C)c2c(/N=N/c3nc4ccccc4n3C)c(C(C)(C)C)nn12` [Dye (14)], the Transferring property result is “A (A (very good): reflection density of 1.8 or more)”.

As for `Cc1nn(C)c2c(N=Nc3c(C#N)c(C(C)(C)C)nn3C)c(C(C)(C)C)nn12` [Dye (7)], the Transferring property entry is on record as “A (A (very good): reflection density of 1.8 or more)”.

As to `CC(C)c1nn(C)c2c(/N=N/c3c(C#N)c(C(C)(C)C)nn3C)c(C(C)(C)C)nn12` [Dye (10)], the Transferring property entry is “A (A (very good): reflection density of 1.8 or more)”.
